Laboratory results as given in PMC11260172.

T1: CSRNP3-Flag (UniProt Q8WYN3)
T1 sequence: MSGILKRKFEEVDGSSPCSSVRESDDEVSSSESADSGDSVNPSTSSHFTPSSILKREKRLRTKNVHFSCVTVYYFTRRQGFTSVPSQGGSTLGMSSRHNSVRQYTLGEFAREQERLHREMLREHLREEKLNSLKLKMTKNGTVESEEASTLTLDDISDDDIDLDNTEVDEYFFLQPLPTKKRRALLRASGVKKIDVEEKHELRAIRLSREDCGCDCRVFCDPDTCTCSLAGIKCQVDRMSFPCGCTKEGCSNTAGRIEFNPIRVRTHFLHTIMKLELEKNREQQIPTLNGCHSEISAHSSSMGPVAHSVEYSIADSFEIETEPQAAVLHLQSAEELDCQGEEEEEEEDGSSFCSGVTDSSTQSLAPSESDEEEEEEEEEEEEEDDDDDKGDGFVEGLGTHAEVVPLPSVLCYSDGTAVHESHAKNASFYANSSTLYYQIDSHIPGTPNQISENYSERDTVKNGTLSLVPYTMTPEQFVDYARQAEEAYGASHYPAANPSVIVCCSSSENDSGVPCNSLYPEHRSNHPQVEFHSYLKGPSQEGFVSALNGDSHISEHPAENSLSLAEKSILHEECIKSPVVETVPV


Experiments:
CSRNP3-Flag = target: T1, CSRNP3-Flag; test: co-IP; semi-endogenous: IP with anti-Flag in PC-9 cells overexpressing CSRNP3-Flag or CSRNP3mut-Flag, endogenous PP1α
[1] = target: serine/threonine protein phosphatase 1 catalytic subunit α (PP1α), endogenous (human (endogenous in PC-9 and HCC827)); test: proximity ligation; PLA of endogenous CSRNP3 and PP1α in cells
[2] = target: serine/threonine protein phosphatase 1 catalytic subunit α (PP1α), endogenous (human (endogenous in PC-9 and HCC827)); test: co-IP; endogenous proteins, IP with anti-PP1α in PC-9 or HCC827 cells cultured with rCSF2 (100 ng/mL)

binding (CSRNP3-Flag) | binding [1] | binding [2] | Molecule
binds |  |  | serine/threonine protein phosphatase 1 catalytic subunit α (PP1α), endogenous (human (endogenous in PC-9 and HCC827)) (enzyme)
 | binds | binds | cysteine/serine-rich nuclear protein 3 (CSRNP3), endogenous (protein, UniProt Q8WYN3 1-585) MSGILKRKFEEVDGSSPCSSVRESDDEVSSSESADSGDSVNPSTSSHFTPSSILKREKRLRTKNVHFSCVTVYYFTRRQGFTSVPSQGGSTLGMSSRHNSVRQYTLGEFAREQERLHREMLREHLREEKLNSLKLKMTKNGTVESEEASTLTLDDISDDDIDLDNTEVDEYFFLQPLPTKKRRALLRASGVKKIDVEEKHELRAIRLSREDCGCDCRVFCDPDTCTCSLAGIKCQVDRMSFPCGCTKEGCSNTAGRIEFNPIRVRTHFLHTIMKLELEKNREQQIPTLNGCHSEISAHSSSMGPVAHSVEYSIADSFEIETEPQAAVLHLQSAEELDCQGEEEEEEEDGSSFCSGVTDSSTQSLAPSESDEEEEEEEEEEEEEDDDDDKGDGFVEGLGTHAEVVPLPSVLCYSDGTAVHESHAKNASFYANSSTLYYQIDSHIPGTPNQISENYSERDTVKNGTLSLVPYTMTPEQFVDYARQAEEAYGASHYPAANPSVIVCCSSSENDSGVPCNSLYPEHRSNHPQVEFHSYLKGPSQEGFVSALNGDSHISEHPAENSLSLAEKSILHEECIKSPVVETVPV

These are yes or no findings as the source states them, for the method shown. Binding seen in cells or lysates may run through a third protein. Binding calls can cover weak binding; strength is not graded here. For part of these data: Where a sequence is shown, tags or fusion partners need not be part of it.
